Experimental data as given in paper PMC2758934 (Nature structural & molecular biology, 2009).

Target: LeuT (Aquifex aeolicus, UniProt O67854)
Experiment: biochemical

- IC50: 19.7 ± 9.2 µM
SMILES: CN[C@H]1CC[C@@H](c2ccc(Cl)c(Cl)c2)c2ccccc21 [sertraline]
